# Inconclusive results, whose numbers are uncertain, are shown with a selection of clear calls. For some of these results: Where the call is inconclusive, the potency comes from a doubtful curve fit. Calls of active or inactive are those of the source. Unless noted, calls follow the shape of the full dose curve.
# The chains behind the UniProt entries cited, without tags or fusion partners.
# UniProt P14416, whole entry, looked up: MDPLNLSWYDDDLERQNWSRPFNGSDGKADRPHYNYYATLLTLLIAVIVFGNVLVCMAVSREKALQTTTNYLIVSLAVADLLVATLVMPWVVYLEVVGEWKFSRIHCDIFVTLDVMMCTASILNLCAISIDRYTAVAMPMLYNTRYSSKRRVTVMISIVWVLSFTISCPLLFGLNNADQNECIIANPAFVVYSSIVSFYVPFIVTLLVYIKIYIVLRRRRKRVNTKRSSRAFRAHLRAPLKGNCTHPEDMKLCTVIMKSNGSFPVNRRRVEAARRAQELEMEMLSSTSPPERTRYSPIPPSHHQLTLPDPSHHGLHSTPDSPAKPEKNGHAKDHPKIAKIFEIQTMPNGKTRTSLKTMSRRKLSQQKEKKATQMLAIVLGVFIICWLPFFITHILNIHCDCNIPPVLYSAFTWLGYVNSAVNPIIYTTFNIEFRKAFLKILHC
# What was measured:
# [1] = p53 small molecule agonists, cell-based qHTS assay with human liver microsomes: qHTS cell viability counter screen (AID 1963579); also: nearly all actives have a fitted effect of over 45% in size; also: potency is read from the fitted curve at half-maximal effect
# Procedure, shortened: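 p53RE-bla cells (4,000/well) were pre-incubated 5 h at 37 C, then given compounds in DMSO plus human liver microsomes (0.5 mg/mL final) and NADPH (0.5 mg/mL final) for 16 h at 37 C. Viability was read by CellTiter-Glo luminescence.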
# [2] = cAMP Responsive Elements (CRE) small molecule agonists, cell-based qHTS assay (AID 1963590); details: CRE-bla HEK293T, beta-lactamase FRET ratio, 3 h; activation: at 92.4 µM (top of the series) unless noted; also: % is scaled to controls: 0 for no effect and ±100 for the full control effect
# Procedure, shortened: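 HEK 293T CRE-bla, 2,000 cells/well, 18 h preincubation 37 C/5% CO2; cpds (DMSO) pinned, 3 h; LiveBLAzer B/G FRET substrate, 2 h RT.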
# [3] = target: Beta-2 adrenergic receptor (Homo sapiens) (UniProt P07550); experiment: Adrenergic beta2 receptor (ADRB2) small molecule agonists, cell-based qHTS assay (AID 1963593); details: CHO-ADRB2 cells, cAMP HTRF, 30 min; activation: at 92.4 µM (top of the series) unless noted; also: potency is read from the fitted curve at half-maximal effect;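 as to activation: CHO cells stably overexpressing human ADRB2; % is scaled to controls: 0 for no effect and ±100 for the full control effect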
# Procedure, shortened: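 CHO cells stably over-expressing ADRB2 were plated overnight at 37C, then dosed with compounds plus a stimulation mix containing 100uM IBMX and 25uM Ro-20-1724 for 0.5hr at room temperature. cAMP was measured by HTRF competition, 1hr.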
# [4] = cAMP Responsive Elements (CRE) small molecule antagonists, cell-based qHTS assay (AID 1963591; active = well fitted inhibition curve with a large enough effect in the signal ratio in the repeat runs, not every such curve was filed as active; inconclusive = weak or mixed curves, or effect the other way; the % refers to the signal ratio; also: % is scaled to controls: 0 for no effect and ±100 for the full control effect); details: CRE-bla HEK293T, beta-lactamase FRET ratio; activity change, negative = inhibition: at 92.4 µM (top of the series) unless noted
# Procedure, shortened: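 Beta-lactamase reporter read by FRET substrate (LiveBLAzer B/G) after 2 h at room temperature. CRE-bla HEK293T cells had received compound plus 0.25 uM (final) NKH477 for 3 h at 37 °C.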
# [5] = target: Beta-2 adrenergic receptor (Homo sapiens) (UniProt P07550); experiment: Adrenergic beta2 receptor (ADRB2) small molecule antagonists, cell-based qHTS assay (AID 1963592); details: CHO-ADRB2 cells, isoproterenol-stimulated cAMP HTRF ratio, 0.5 h; activity change, negative = inhibition: at 92.4 µM (top of the series) unless noted; also: nearly all actives have a fitted effect of over 50% in size; also: potency is read from the fitted curve at half-maximal effect
# Procedure, shortened: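 Cells (CHO, stable ADRB2 overexpression) incubated 18-20hr at 37C; compounds added from DMSO; agonist mix (1nM isoproterenol, 100uM IBMX, 25uM Ro-20-1724) added; 0.5hr RT; d2-cAMP and anti-cAMP-cryptate added; 1hr RT; 665/615 nm read.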
# [6] = target: D(2) dopamine receptor (Homo sapiens) (UniProt P14416); experiment: Dopamine D2 receptor (DRD2) small molecule agonists, cell-based qHTS assay (AID 1963594); details: HEK293-DRD2 cAMP HTRF, agonist mode, 30 min; activation: at 92.4 µM (top of the series) unless noted; also: potency is read from the fitted curve at half-maximal effect; nearly all actives have a fitted effect of over 35% in size
# Procedure, shortened: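 HEK293 cells stably expressing DRD2 were cultured 24 h at 37 C, then given Ro20-1724 (0.1 mM final) and compounds for 10 min at room temperature. NKH477 (200nM) was then added for 30 min. cAMP was read by HTRF.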
# [7] = target: D(2) dopamine receptor (Homo sapiens) (UniProt P14416); experiment: Dopamine D2 receptor (DRD2) small molecule antagonists, cell-based qHTS assay (AID 1963595; active = well fitted inhibition curve with a large enough effect in the signal ratio in the repeat runs, with a control signal flat; inconclusive = weak or mixed curves, or effect the other way; the % refers to the signal ratio; also: % is scaled to controls: 0 for no effect and ±100 for the full control effect); details: HEK293-DRD2 cAMP HTRF antagonist mode; activity change, negative = inhibition: at 92.4 µM (top of the series) unless noted
# Procedure, shortened: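 Readout: HTRF cAMP, cAMP-d2 competing with cellular cAMP for anti-cAMP cryptate, read after 1 h. Cells: DRD2-HEK293. Conditions: 0.1 mM Ro20-1724, 12 nM quinpirole, 200 nM NKH477, 30 min RT.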
smiles,measurement,setting,value
COc1cc(C=O)ccc1O,Potency,[1],"inconclusive: 630 nM [rising, partial curve, poor fit]"
same,Potency,[2],inactive
same,activation,[3],inconclusive: -52.2%
CCCCN1C(=O)c2ccccc2C1=O,Potency,[1],inactive
same,"activity change, negative = inhibition",[4],inconclusive: -22.9%
same,activation,[3],inconclusive: 0.97%
CCCCC(CC)COCC1CO1 (stereo not drawn),Potency,[1],inactive
same,"activity change, negative = inhibition",[4],inconclusive: 4.66%
OCCCC1CCCCC1,Potency,[1],inactive
same,Potency,[3],inactive
O=C1CCCCO1,Potency,[1],inactive
same,Potency,[3],"inconclusive: 2730 nM [inhibitor, single point]"
Oc1cccc2[nH]ccc12,Potency,[1],"inconclusive: 3970 nM [rising, full curve, poor fit]"
same,"activity change, negative = inhibition",[5],inconclusive: 12.3% [at 42.5 µM]
same,Potency,[3],inactive
CC(C)(O)C(=O)O,Potency,[1],inactive
same,Potency,[3],inactive
CC/C(=C\C(=N/O)C(N)=O)C(C)[N+](=O)[O-] (stereo not drawn),Potency,[1],"inconclusive: 51300 nM [cytotoxic, partial curve, poor fit]"
same,activation,[3],inconclusive: 10.9%
Cc1c(Cn2ccnc2)c2ccccc2n1CCC(=O)O,Potency,[1],"inconclusive: 99.8 nM [rising, partial curve, poor fit]"
same,activation,[3],inconclusive: 18.9% [at 42.5 µM]
O=C1NC(=O)C2CC=CCC12 (stereo not drawn),Potency,[1],"inconclusive: 36300 nM [rising, partial curve, poor fit]"
same,Potency,[3],inconclusive: 27300 nM [inhibitor]
Cc1ccc2ccccc2c1[N+](=O)[O-],Potency,[1],inactive
same,Potency,[3],inactive
O=C(Nc1ccccc1)c1ccccc1O,Potency,[1],"inconclusive: 45800 nM [cytotoxic, single point]"
same,activation,[3],inconclusive: -16.5%
C1=Cc2ccccc2C1,Potency,[1],inactive
same,Potency,[3],"inconclusive: 545 nM [activator, partial curve, poor fit]"
NNC(=O)CP(=O)(c1ccccc1)c1ccccc1,Potency,[1],inactive
same,Potency,[3],inactive
CCn1cc(C(=O)O)c(=O)c2cc(F)c(N3CCN(C)CC3)cc21,Potency,[1],"inconclusive: 274 nM [rising, partial curve, poor fit]"
same,activation,[3],inactive: -18.5% [at 19 µM]
NC(CO)C(=O)NNCc1ccc(O)c(O)c1O (stereo not drawn),Potency,[1],inactive
same,"activity change, negative = inhibition",[5],inconclusive: 1.14% [at 42.5 µM]
same,Potency,[3],"inconclusive: 29800 nM [falling, partial curve]"
same,Potency,[6],"inconclusive: 33500 nM [falling, single point]"
CCCCCCCC(OC)OC,Potency,[1],inactive
same,Potency,[3],inactive
CC(C)C(=O)Nc1cccc(C(F)(F)F)c1,Potency,[1],"inconclusive: 3970 nM [rising, partial curve, poor fit]"
same,activation,[3],inconclusive: 34% [at 42.5 µM]
CCCOC(=O)C(C)O (stereo not drawn),Potency,[1],inactive
same,Potency,[3],inactive
Cc1cscn1,Potency,[1],inactive
same,activation,[3],inconclusive: 31.8%
CC(C)CCCCCCOC(=O)c1ccc(C(=O)OCCCCCCC(C)C)c(C(=O)OCCCCCCC(C)C)c1,Potency,[1],"inconclusive: 162 nM [cytotoxic, single point]"
same,Potency,[5],inactive
same,"activity change, negative = inhibition",[7],inconclusive: -1.81%
COc1cc(O)cc(O)c1,Potency,[1],"inconclusive: 793 nM [cytotoxic, single point]"
same,Potency,[3],inactive
CC(=O)/C(C)=C/C1C(C)=CCCC1(C)C (stereo not drawn),Potency,[1],"inconclusive: 18200 nM [cytotoxic, single point]"
same,activation,[3],inconclusive: 33.6%
CCCCCCCCN(C)CCCCCCCC,Potency,[1],"inconclusive: 4630 nM [cytotoxic, single point]"
same,activation,[3],inconclusive: 4.99%
CC(C)=CCC[C@H](C)CCO,Potency,[1],"inconclusive: 408 nM [cytotoxic, single point]"
same,Potency,[3],"inconclusive: 27300 nM [inhibitor, single point]"
Cc1cc2c(OCC(CNC(C)(C)C)OC(=O)c3ccccc3)cccc2[nH]1 (stereo not drawn),Potency,[1],"inconclusive: 1780 nM [rising, partial curve, poor fit]"
same,Potency,[5],active: 168 nM
same,Potency,[3],"inconclusive: 188 nM [inhibitor, full curve]"
S=C(SSSSSSC(=S)N1CCCCC1)N1CCCCC1,Potency,[1],"inconclusive: 6350 nM [cytotoxic, full curve]"
same,Potency,[3],"inconclusive: 1510 nM [inhibitor, single point]"
CCCCC(=O)O,Potency,[1],"inconclusive: 45800 nM [cytotoxic, single point]"
same,"activity change, negative = inhibition",[5],inconclusive: -7.81%
same,Potency,[3],"inconclusive: 219 nM [inhibitor, full curve, poor fit]"
O=C(O)CCC(=O)OC[C@@H](NC(=O)C(Cl)Cl)[C@H](O)c1ccc([N+](=O)[O-])cc1,Potency,[1],"inconclusive: 79.3 nM [cytotoxic, single point]"
same,Potency,[5],inactive
same,Potency,[3],inactive
O=C1C=CC(=O)O1,Potency,[1],inactive
same,Potency,[3],inactive
CC(=O)N(O)CCCCCNC(=O)CCC(=O)N(O)CCCCCNC(=O)CCC(=O)N(O)CCCCCN,Potency,[1],inactive
same,Potency,[3],"inconclusive: 1.5 nM [rising, full curve, poor fit]"
CC1(C)O[C@@H]2[C@@H](CO[C@@]3(COS(N)(=O)=O)OC(C)(C)O[C@@H]23)O1,Potency,[1],"inconclusive: 25100 nM [rising, single point]"
same,Potency,[3],inactive

# Shown as tab-separated lines: entries from further up.
smiles	measurement	setting	value
CCCOC(=O)C(C)O (stereo not drawn)	Potency	[1]	inactive
same	Potency	[3]	inactive
Cc1cscn1	Potency	[1]	inactive
same	activation	[3]	inconclusive: 31.8%
CC(C)CCCCCCOC(=O)c1ccc(C(=O)OCCCCCCC(C)C)c(C(=O)OCCCCCCC(C)C)c1	Potency	[1]	inconclusive: 162 nM [cytotoxic, single point]
same	Potency	[5]	inactive

# — PubChem BioAssay (Tox21)
